# PubChem BioAssay AID485314 (National Center for Advancing Translational Sciences (NCATS), 2010)
# In all, about 340,000 compounds went through this assay and about 4,500 (1.3%) were called active. Inconclusive results, whose numbers are uncertain, are shown with a selection of clear calls. Calls follow the shape of the dose curve; as a rule, active = well fitted inhibition curve with a large enough effect; inconclusive = small, poorly fitted or top-dose-only effect, or another doubt; inactive = no such curve, though single readings can be large or run the other way. Potencies beside an inconclusive call are fits to weak or partial responses and may not hold up.
# Target: DNA polymerase beta (Homo sapiens) (UniProt P06746)
# Assay: qHTS Assay for Inhibitors of DNA Polymerase Beta
# Conditions: Pol beta primer extension/strand displacement, fluorescence kinetic; activity change, negative = inhibition: at 114 µM (top of the series)
# Method in brief: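 Kinetic readout of DNA synthesis with strand displacement by Pol beta. Compound and 10 nM enzyme sit 15 min at room temperature; 50 nM substrate starts the reaction, read immediately and at 10 min.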
# % is scaled to controls: 0 for no effect and ±100 for the full control effect; potency is read from the fitted curve at half-maximal effect.
SMILES,"activity change, negative = inhibition",Potency
COc1ccc(-c2nn(CCC#N)cc2C(=O)NCc2ccccc2)cc1,inactive: -5.77%,–
O=C(Cc1cc(=O)[nH][nH]1)N/N=C/c1cccc2ccccc12,–,"inconclusive: 20 µM [inhibitor, partial curve, poor fit]"
CCOC(=O)CSc1ccc(C(=O)N2CCC3(CC2)OCCO3)cc1[N+](=O)[O-],inactive: 0.206%,–
N#Cc1cc2c(nc1SCC(=O)Nc1cccc(F)c1)C1CCN2CC1,inactive: 31.6%,–
Cn1cccc1/C=C1\C(=O)NC(=O)N(Cc2ccco2)C1=O,–,active: 14.1 µM
Cc1nnc(SCc2nc3ccccc3c(=O)n2-c2ccccc2Cl)n1N,–,"inconclusive: 89.1 µM [inhibitor, single point]"
CC1=CC(=Cc2sc3ccccc3[n+]2C)C=C(C)O1,–,"inconclusive: 35.5 µM [inhibitor, partial curve]"
Nc1ccc(Br)cc1C(=O)c1ccccc1,–,"inconclusive: 89.1 µM [inhibitor, single point]"
CCn1c(=O)cc(OCC(=O)N2CCC3(CC2)OCCO3)c2ccccc21,inactive: -0.759%,–
CCOC(=O)C1(CCc2ccccc2)CCN(Cc2ccc3c(c2)OCCO3)CC1,–,"inconclusive: 89.1 µM [inhibitor, single point]"
Cc1ccc(/C=C2/C(=O)NC(=O)N(CC3CCCO3)C2=O)s1 (stereo not given),–,"inconclusive: 35.5 µM [inhibitor, partial curve]"
O=C1CN(O)C(c2ccccc2)=c2cc(Cl)ccc2=N1,–,"inconclusive: 25.1 µM [inhibitor, single point]"
COc1cccc(Cn2c(=O)oc3ccccc32)c1,–,"inconclusive: 89.1 µM [inhibitor, single point]"
C=CCN1C(=O)/C(=C/c2ccc(Br)s2)C(=O)NC1=S,–,"inconclusive: 39.8 µM [inhibitor, partial curve]"
CCc1ccc(N2C(=O)CC(=O)NC2=O)cc1,inactive: 11%,–
CC1=NN(c2ccccc2)C(=O)C1/C=C1\C(=O)NC(=O)N(c2cc(C)cc(C)c2)C1=O (stereo not given),inactive: -8.44%,–
CC(C)C[C@@H](CN(N=O)[C@@H](Cc1ccccc1)CN(C)N=O)N(CCc1ccccc1)N=O,–,"inconclusive: 79.4 µM [inhibitor, single point]"
Cc1cc(/C=C2/C(=O)NC(=O)N(Cc3ccco3)C2=O)c(C)n1-c1ccccc1O,–,active: 28.2 µM
O=C(Oc1ccc2ccccc2c1Cl)N1CCCC1,–,"inconclusive: 79.4 µM [inhibitor, single point]"
COc1ccc(CC2c3cc(OC)c(OC)cc3CCN2C)cc1O (stereo not given),inactive: 10.3%,–
CC(C)N(Cc1nccn1C)C(=O)CCc1nnc(CCCc2ccccc2)o1,–,"inconclusive: 39.8 µM [inhibitor, single point]"
CCCC(c1nnnn1Cc1cccs1)N1CCN(c2nc3ccccc3s2)CC1 (stereo not given),–,"inconclusive: 4.47 µM [inhibitor, full curve, poor fit]"
Cc1cc(/C=C2\C(=O)NC(=O)N(c3ccc(Cl)cc3)C2=O)c(C)n1-c1cccc(C(=O)O)c1,–,"inconclusive: 31.6 µM [inhibitor, single point]"
CCN1C(=O)/C(=C\c2ccc([N+](=O)[O-])s2)C(=O)NC1=S,–,active: 4.47 µM

# Full records, looked up by structure.
# CCc1ccc(N2C(=O)CC(=O)NC2=O)cc1 as listed: activity change, negative = inhibition: inactive: 11%
# Cc1ccc(/C=C2/C(=O)NC(=O)N(CC3CCCO3)C2=O)s1 (stereo not given) as listed: Potency: inconclusive: 35.5 µM [inhibitor, partial curve]
# O=C(Oc1ccc2ccccc2c1Cl)N1CCCC1 as listed: Potency: inconclusive: 79.4 µM [inhibitor, single point]
# CCCC(c1nnnn1Cc1cccs1)N1CCN(c2nc3ccccc3s2)CC1 (stereo not given) as listed: Potency: inconclusive: 4.47 µM [inhibitor, full curve, poor fit]

# (continued)

SMILES,"activity change, negative = inhibition",Potency
CCOc1ccc(NC(=O)CSc2oc(-c3ccccc3)nc2S(=O)(=O)c2ccc(Cl)cc2)cc1,–,"inconclusive: 79.4 µM [inhibitor, single point]"
O=c1[nH]c(=O)n(Cc2ccco2)c(O)c1/C=N/N1CCCCC1,–,"inconclusive: 25.1 µM [inhibitor, full curve]"
Cc1nn(Cc2ccccc2Cl)c(C)c1C(=O)NC1CCCc2ccccc21 (stereo not given),–,"inconclusive: 22.4 µM [inhibitor, full curve]"
CCC(=O)Nc1cc(C(=O)O)ccc1S(=O)(=O)c1ccc(C)cc1,–,active: 10 µM
CN1C(=O)/C(=C/c2ccc(Cl)s2)C(=O)NC1=S,inactive: 3.88%,–
NC(CP(=O)(O)O)C(=O)O (stereo not given),inactive: 10.2% [at 57.1 µM],–
CN1CCc2cc(O)cc3c2C1Cc1ccc(O)c(O)c1-3 (stereo not given),inactive: -2.22% [at 57.1 µM],–
Cc1cccc(N2C(=O)/C(=C/c3ccc(N4CCN(C)CC4)o3)C(=O)NC2=S)c1C,inactive: -1.84%,–
COc1cc2c(cc1O)CC[n+]1cc3c(OC)c(OC)ccc3cc1-2,–,"inconclusive: 39.8 µM [inhibitor, partial curve]"
CCn1c(C)c(C(=O)Nc2ccc(OC)cc2)c2cc(OC)ccc21,inactive: 3.1%,–
O=c1[nH]c(=O)n(Cc2ccccc2)c(O)c1C=NCCN1CCNCC1,–,"inconclusive: 0.447 µM [inhibitor, full curve]"
COc1ccc(-n2c(/C=C/c3ccc(O)c(O)c3)nc3ccccc3c2=O)cc1,–,"inconclusive: 11.2 µM [inhibitor, full curve]"
O=C(O)c1ccc(-n2c(O)c(/C=C3\C=Nc4ccccc43)c(=O)[nH]c2=O)cc1,inactive: -13.5%,–
COC(=O)c1sccc1NC(=O)c1ccc(C#N)cc1,–,"inconclusive: 63.1 µM [inhibitor, partial curve, poor fit]"
CCCCCn1c(=O)c(C(=O)NCc2ccncc2)c(O)c2ccccc21,–,"inconclusive: 8.91 µM [inhibitor, full curve]"
Cc1cc(/C=C2/C(=O)NC(=O)N(c3ccc(Br)cc3)C2=O)c(C)n1C,inactive: -29.1%,–
CNS(=O)(=O)c1ccc(-c2ccc(C=C3C(=O)NC(=O)NC3=O)o2)cc1,–,"inconclusive: 89.1 µM [inhibitor, single point]"
O=Cc1c(C(=O)O)n(Cc2ccc(Cl)cc2)c2ccccc12,–,"inconclusive: 50.1 µM [inhibitor, partial curve]"
COc1ccc(C(=O)c2nc3ccccc3n2C(C)C)cc1,–,"inconclusive: 79.4 µM [inhibitor, single point]"
Cn1nnc(CC[N+](C)(C)C)n1,–,"inconclusive: 0.158 µM [inhibitor, full curve, poor fit]"
CN1C[C@H](CO)C[C@@H]2c3cccc4[nH]cc(c34)C[C@H]21,inactive: -1.67%,–
CN1C(=O)c2ccccc2Sc2ccc(NC(=O)NCc3ccc(Cl)cc3)cc21,–,"inconclusive: 100 µM [inhibitor, single point]"
COc1ccc(CCCc2nnc(SCC(=O)Nc3ccc(C)c(C)c3)o2)cc1,–,"inconclusive: 1.12 µM [inhibitor, partial curve]"
CCn1nc(-c2ccccc2)nc2c(=O)n(C)c(=O)nc1-2,–,"inconclusive: 56.2 µM [inhibitor, partial curve, poor fit]"

SMILES,"activity change, negative = inhibition",Potency
CCCCN1C(=O)/C(=C/C=C/c2ccco2)C(=O)NC1=S,–,active: 3.55 µM
N=C1/C(=C/c2ccc(OC(=O)c3ccco3)cc2)C(=O)N=C2SC=CN12,–,"inconclusive: 7.08 µM [inhibitor, full curve, poor fit]"
CC(C)(C)c1cc(C=C(C#N)C#N)cc(C(C)(C)C)c1O,inactive: 9.59% [at 57.1 µM],–
Cc1ccc2nc(C)n(-c3ccc(F)cc3)c(=O)c2c1,–,"inconclusive: 0.158 µM [inhibitor, full curve]"
CCn1cc(C=C2C(=O)NC(=O)NC2=O)c2ccccc21,–,"inconclusive: 14.1 µM [inhibitor, partial curve]"
NC(=O)c1ccc(NC(=O)c2cccn(Cc3ccccc3)c2=O)cc1,–,"inconclusive: 28.2 µM [inhibitor, full curve]"
Cc1ccc(-n2c(/C=C/c3cccc(C(F)(F)F)c3)nc3ccccc3c2=O)cc1,inactive: -1.25%,–
N=C1c2ccccc2CN1c1ncccn1,–,"inconclusive: 79.4 µM [inhibitor, single point]"
C=CCN1CC[C@]23c4c5ccc(O)c4O[C@@H]2/C(=N/N=C2\CC[C@@]4(O)C6Cc7ccc(O)c8c7[C@@]4(CCN6CC=C)[C@@H]2O8)CC[C@@]3(O)C1C5,inactive: -6.14% [at 57.1 µM],–
CCN1CCN(C(=O)COc2ccc(S(=O)(=O)NC(C)C)cc2)CC1,–,"inconclusive: 2.51 µM [inhibitor, partial curve, poor fit]"
COc1cccc(C2=CC(c3cc(Br)ccc3F)n3nnnc3N2)c1 (stereo not given),–,"inconclusive: 89.1 µM [inhibitor, single point]"
Cc1cccnc1-n1c(CN2C(=O)c3ccccc3C2=O)nc2ccccc2c1=O,–,"inconclusive: 0.282 µM [inhibitor, full curve]"
O=C(Nc1ccccc1C(F)(F)F)c1cccn(Cc2ccccc2)c1=O,–,"inconclusive: 39.8 µM [inhibitor, single point]"
CCc1ccc(CN2CCN(Cc3cc(Br)ccc3O)CC2)cc1,–,"inconclusive: 11.2 µM [inhibitor, partial curve, poor fit]"
Cc1ccc(-n2c(C)cc(/C=C3\C(=O)NC(=O)N(C)C3=O)c2C)cc1C,–,"inconclusive: 31.6 µM [inhibitor, full curve]"
Cc1cccc(-n2c(-c3ccc([N+](=O)[O-])cc3)nc3ccccc3c2=O)c1,–,"inconclusive: 15.8 µM [inhibitor, partial curve, poor fit]"
CC(=NCCC(c1ccccc1)c1ccccc1)c1c(O)n(C)c(=O)n(C)c1=O,–,"inconclusive: 79.4 µM [inhibitor, single point]"
C1CCC2S[C@H]3CCCCC3NC2C1 (stereo not given in full),inactive: -11.6%,–
COc1ccccc1/C=C1\C(=O)NC(=S)N(c2ccccc2)C1=O,inactive: 2.1%,–
O=C1CC(=O)N(c2ccc3c(c2)OCO3)C(=O)N1,–,"inconclusive: 89.1 µM [inhibitor, single point]"
C=CCn1c(O)c(C(C)=O)c(=O)[nH]c1=O (tested in a mixture with another compound),–,"inconclusive: 100 µM [inhibitor, single point]"
COCCN1C(=O)NC(=O)/C(=C\c2ccc(F)cc2)C1=O,–,"inconclusive: 0.631 µM [inhibitor, full curve, poor fit]"
